In article PMC10170298:
No constants are given. Whether binding was seen depends on the method and setting. Some entries that bind do so weakly or less than the wild type. Where a sequence is shown, tags or fusion partners need not be part of it.

T1: melanoma differentiation associated-5 (MDA5), FLAG-tagged, purified recombinant, Q9BYX4
T1 chain: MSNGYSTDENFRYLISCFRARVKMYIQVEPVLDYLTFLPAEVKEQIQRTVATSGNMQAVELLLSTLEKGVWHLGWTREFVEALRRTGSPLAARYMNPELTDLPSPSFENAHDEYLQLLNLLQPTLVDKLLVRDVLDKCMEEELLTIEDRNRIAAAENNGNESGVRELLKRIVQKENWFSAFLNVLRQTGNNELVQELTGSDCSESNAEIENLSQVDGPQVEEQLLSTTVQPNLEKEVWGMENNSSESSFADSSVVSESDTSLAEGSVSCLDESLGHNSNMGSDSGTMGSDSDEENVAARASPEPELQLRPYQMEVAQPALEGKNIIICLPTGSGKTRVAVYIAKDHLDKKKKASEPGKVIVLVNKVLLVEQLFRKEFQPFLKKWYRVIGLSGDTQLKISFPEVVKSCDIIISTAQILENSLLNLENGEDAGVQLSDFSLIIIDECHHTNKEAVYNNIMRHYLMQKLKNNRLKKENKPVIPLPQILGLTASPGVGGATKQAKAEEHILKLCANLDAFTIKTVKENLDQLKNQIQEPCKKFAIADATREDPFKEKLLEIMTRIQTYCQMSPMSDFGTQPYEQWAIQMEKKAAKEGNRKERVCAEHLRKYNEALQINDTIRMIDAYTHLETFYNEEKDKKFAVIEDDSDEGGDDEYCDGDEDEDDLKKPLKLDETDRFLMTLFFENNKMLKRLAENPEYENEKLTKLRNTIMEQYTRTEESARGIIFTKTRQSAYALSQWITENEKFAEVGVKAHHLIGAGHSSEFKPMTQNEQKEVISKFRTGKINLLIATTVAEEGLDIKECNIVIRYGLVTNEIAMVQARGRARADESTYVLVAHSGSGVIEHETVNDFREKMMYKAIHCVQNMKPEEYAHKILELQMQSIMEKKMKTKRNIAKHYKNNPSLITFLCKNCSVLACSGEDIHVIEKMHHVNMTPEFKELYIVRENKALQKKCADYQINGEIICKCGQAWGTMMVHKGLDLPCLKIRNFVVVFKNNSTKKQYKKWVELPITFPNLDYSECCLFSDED

T2: retinoic acid inducible gene-I (RIG-I), FLAG-tagged, purified recombinant, O95786
T2 chain: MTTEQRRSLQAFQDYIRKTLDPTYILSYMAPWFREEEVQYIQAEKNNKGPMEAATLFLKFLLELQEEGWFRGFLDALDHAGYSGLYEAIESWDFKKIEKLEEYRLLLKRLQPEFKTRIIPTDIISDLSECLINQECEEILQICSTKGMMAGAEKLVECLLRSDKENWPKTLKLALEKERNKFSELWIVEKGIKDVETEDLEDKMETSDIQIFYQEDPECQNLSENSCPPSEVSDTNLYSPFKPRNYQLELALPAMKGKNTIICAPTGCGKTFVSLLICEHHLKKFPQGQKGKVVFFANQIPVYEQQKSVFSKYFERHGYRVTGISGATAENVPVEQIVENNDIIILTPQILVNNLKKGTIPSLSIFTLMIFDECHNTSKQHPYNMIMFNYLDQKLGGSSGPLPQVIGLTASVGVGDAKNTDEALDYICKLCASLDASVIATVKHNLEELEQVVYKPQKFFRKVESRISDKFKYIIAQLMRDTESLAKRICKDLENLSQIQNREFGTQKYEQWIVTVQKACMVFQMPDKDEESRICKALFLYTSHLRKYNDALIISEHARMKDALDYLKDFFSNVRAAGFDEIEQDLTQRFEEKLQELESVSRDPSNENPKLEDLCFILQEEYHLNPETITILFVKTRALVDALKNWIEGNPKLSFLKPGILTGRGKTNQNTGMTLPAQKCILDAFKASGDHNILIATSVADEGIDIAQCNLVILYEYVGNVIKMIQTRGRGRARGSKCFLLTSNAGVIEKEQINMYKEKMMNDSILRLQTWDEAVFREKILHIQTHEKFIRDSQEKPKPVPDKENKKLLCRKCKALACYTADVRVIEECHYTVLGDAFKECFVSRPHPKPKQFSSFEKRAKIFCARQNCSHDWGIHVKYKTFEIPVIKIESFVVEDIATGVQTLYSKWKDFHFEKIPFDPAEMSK

T3: laboratory of genetics and physiology 2 (LGP2), FLAG-tagged, purified recombinant (UniProt Q96C10)
T3 sequence: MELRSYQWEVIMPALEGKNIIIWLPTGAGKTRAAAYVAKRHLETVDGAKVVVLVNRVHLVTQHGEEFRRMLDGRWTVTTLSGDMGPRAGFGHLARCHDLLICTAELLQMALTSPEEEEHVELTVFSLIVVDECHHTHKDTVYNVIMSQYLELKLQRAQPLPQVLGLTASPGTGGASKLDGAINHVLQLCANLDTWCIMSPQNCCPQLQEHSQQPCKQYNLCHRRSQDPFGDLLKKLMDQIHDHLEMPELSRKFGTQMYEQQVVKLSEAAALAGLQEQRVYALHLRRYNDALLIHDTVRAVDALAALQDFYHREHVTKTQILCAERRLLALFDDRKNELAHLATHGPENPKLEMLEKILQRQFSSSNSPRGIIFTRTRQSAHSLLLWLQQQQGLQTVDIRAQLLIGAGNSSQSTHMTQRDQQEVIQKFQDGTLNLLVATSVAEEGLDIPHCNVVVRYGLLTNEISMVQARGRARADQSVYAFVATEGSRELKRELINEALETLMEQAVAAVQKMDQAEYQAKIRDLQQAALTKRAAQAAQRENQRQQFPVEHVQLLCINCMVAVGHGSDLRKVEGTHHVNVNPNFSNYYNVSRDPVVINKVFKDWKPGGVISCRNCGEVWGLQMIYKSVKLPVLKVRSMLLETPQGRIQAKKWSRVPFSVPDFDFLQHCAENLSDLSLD

B1: transactivation response RNA-binding protein (TRBP), recombinant, nonphosphorylated wild type, Q15633 1-366 (protein)
chain: MSEEEQGSGTTTGCGLPSIEQMLAANPGKTPISLLQEYGTRIGKTPVYDLLKAEGQAHQPNFTFRVTVGDTSCTGQGPSKKAAKHKAAEVALKHLKGGSMLEPALEDSSSFSPLDSSLPEDIPVFTAAAAATPVPSVVLTRSPPMELQPPVSPQQSECNPVGALQELVVQKGWRLPEYTVTQESGPAHRKEFTMTCRVERFIEIGSGTSKKLAKRNAAAKMLLRVHTVPLDARDGNEVEPDDDHFSIGVGSRLDGLRNRGPGCTWDSLRNSVGEKILSLRSCSLGSLGALGPACCRVLSELSEEQAFHVSYLDIEELSLSGLCQCLVELSTQPATVCHGSATTREAARGEAARRALQYLKIMAGSK
B2: transactivation response RNA-binding protein (TRBP), recombinant, nonphosphorylated wild type (protein, UniProt Q15633 1-366)
chain: MSEEEQGSGTTTGCGLPSIEQMLAANPGKTPISLLQEYGTRIGKTPVYDLLKAEGQAHQPNFTFRVTVGDTSCTGQGPSKKAAKHKAAEVALKHLKGGSMLEPALEDSSSFSPLDSSLPEDIPVFTAAAAATPVPSVVLTRSPPMELQPPVSPQQSECNPVGALQELVVQKGWRLPEYTVTQESGPAHRKEFTMTCRVERFIEIGSGTSKKLAKRNAAAKMLLRVHTVPLDARDGNEVEPDDDHFSIGVGSRLDGLRNRGPGCTWDSLRNSVGEKILSLRSCSLGSLGALGPACCRVLSELSEEQAFHVSYLDIEELSLSGLCQCLVELSTQPATVCHGSATTREAARGEAARRALQYLKIMAGSK

Columns and labels:
Assay in all cases: co-IP; purified recombinant FLAG-RLR (150 ng) incubated with WT or SD TRBP (50 ng) without RNA in whole-cell extract buffer (50 mM Tris-HCl pH 8.0, 280 mM NaCl, 0.5% NP-40, 0.2 mM EGTA, 2 mM EDTA, 1 mM DTT, 1 mM MgCl2); FLAG-RLR isolated on FLAG agarose beads; western blot with FLAG and TRBP antibodies; TRBP without RLR as negative control; both purified
[1] = target: T1, melanoma differentiation associated-5 …; settings: remark: other sources report otherwise
[2] = target: T2, retinoic acid inducible gene-I (RIG-I), …; settings: remark: other sources report otherwise
[3] = target: T3, laboratory of genetics and physiology 2 (LGP2), FLAG-tagged, purified recombinant

Row | Binder | binding [1] | binding [2] | binding [3]
1 | B1 | binds | binds | 
2 | B2 |  |  | binds
